Paper PMC4808027
These are yes or no findings as the source states them, for the method shown. In cells and extracts the contact can be indirect. These calls come from enrichment with a bait or labelling near it, and not all partners need be listed.

The chains behind the UniProt entries cited, without tags or fusion partners.
UniProt O95817: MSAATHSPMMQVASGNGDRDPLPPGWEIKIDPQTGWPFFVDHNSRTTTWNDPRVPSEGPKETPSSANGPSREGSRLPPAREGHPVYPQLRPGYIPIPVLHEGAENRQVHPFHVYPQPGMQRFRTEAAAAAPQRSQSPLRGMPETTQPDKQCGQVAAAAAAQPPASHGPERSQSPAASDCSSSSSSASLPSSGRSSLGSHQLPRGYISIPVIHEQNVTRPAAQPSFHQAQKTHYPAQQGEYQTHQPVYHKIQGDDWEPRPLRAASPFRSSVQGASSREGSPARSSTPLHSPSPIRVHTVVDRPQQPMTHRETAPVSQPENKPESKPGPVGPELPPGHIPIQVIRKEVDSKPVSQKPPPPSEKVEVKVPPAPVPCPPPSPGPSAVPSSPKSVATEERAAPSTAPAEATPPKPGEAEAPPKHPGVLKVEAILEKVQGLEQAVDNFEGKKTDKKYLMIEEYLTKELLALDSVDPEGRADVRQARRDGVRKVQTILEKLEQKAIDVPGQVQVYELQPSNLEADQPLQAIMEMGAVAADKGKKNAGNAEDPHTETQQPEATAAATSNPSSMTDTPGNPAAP
UniProt P11413: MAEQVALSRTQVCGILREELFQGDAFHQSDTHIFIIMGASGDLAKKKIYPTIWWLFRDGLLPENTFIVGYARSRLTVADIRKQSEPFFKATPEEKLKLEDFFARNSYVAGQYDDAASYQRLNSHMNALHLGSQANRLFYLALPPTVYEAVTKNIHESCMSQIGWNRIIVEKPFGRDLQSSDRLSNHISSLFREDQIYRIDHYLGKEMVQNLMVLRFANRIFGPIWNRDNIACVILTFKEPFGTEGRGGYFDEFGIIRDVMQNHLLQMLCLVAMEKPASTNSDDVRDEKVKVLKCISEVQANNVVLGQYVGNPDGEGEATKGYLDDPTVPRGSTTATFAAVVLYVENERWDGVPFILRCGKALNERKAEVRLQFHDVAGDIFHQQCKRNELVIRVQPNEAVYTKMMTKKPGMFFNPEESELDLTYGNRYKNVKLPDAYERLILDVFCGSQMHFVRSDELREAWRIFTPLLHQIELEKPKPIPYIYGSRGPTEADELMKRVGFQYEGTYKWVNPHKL

Target: Flag-tagged BAG3 (Bcl-2 associated athanogene 3) (UniProt O95817)
Assay: affinity purification with mass spectrometry; anti-Flag immunoprecipitation from HEK293 cells transfected with Flag-BAG3; SDS-PAGE, Coomassie blue, band of about 60 kDa analysed by peptide mass fingerprinting (MALDI-TOF)

- binding: binds
Substance: glucose 6 phosphate dehydrogenase (G6PD), endogenous in HEK293 (from UniProt P11413 1-515) (enzyme)
